Consider one substance from PMC4686761.

Protein sequences, listed by entry. Tags and fused reporters are not part of them.
UniProt P60484: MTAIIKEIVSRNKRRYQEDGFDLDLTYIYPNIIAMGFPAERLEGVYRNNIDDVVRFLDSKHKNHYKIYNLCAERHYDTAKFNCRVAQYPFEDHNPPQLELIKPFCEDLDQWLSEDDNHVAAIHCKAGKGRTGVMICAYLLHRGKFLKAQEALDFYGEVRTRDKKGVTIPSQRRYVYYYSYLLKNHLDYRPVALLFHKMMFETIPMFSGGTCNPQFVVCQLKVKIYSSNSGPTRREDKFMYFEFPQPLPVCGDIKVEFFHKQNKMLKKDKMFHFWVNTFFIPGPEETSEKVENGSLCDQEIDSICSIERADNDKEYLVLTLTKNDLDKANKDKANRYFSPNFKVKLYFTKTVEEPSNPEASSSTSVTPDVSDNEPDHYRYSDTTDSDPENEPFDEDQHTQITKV
UniProt P16220: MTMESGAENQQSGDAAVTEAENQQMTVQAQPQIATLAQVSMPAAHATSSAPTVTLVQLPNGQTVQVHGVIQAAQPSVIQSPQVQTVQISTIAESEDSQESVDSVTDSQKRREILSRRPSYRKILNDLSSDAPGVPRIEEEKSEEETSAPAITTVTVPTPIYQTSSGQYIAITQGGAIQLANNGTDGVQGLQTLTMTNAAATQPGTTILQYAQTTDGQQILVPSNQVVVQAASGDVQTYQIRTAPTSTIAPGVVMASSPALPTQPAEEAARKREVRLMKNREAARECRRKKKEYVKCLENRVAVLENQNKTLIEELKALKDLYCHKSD

This experiment addresses Phosphatase and tensin homolog (PTEN) (human) (UniProt P60484). The experiment is described as follows: co-IP; about 1 x 10^7 cells lysed in NP40 lysis buffer (50 mM Tris-HCl pH 8.0, 1% NP-40, 150 mM NaCl, 2 mM EDTA); lysates incubated with anti-Flag agarose overnight at 4 °C; three washes; western blotting; Flag-tagged bait and cell type not stated.

These are yes or no findings as the source states them, for the method shown. Binding seen in cells or lysates may run through a third protein. Some entries that bind do so weakly or less than the wild type.

For the substance “cAMP responsive element binding protein 1 (CREB) (from UniProt P16220 1-327)”, the binding result is reported as “binds”.
